Measured data: PubChem BioAssay AID1259308 (NCATS, 2017)
Assay: 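Knock-downs that increase output of a recombinant reporter protein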 (primary screen). Cell system: human HEK293 embryonic kidney cells stably expressing firefly luciferase (HEK-CMV-Luc2-Hygro). Knock-down reagent: single siRNA against human genes, 0.8 pmol siRNA per well. Time to read-out: 72 h. Detection: 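Reporter luminescence and viable-cell signal on separate replicate plates, given as percent of non-targeting control and median/MAD z-scores, plus per-cell luciferase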. Reading the numbers: total luciferase, z-score: higher = more reporter protein produced. Hit rule: 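Active when the median/MAD z-score for overall luciferase is greater than 3; a gene was taken forward for validation with new siRNAs if at least two of its three siRNAs passed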. Meaning of the calls: active = raised luciferase; inactive = no rise.
The deposit covers about 59,000 reagents; this is a random part of them. Over the whole deposit, about 1,510 (2.6%) were called active. 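Calls use total luciferase alone and ignore viability, so some active siRNAs may act by altering cell number.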 Entries without a mark were called inactive. The numbers tell different reagents against one gene apart. Not all columns of the deposit are shown.

After knock-down of SHROOM2 #1, the record shows total luciferase, z-score 0.0508.
SHROOM2 #2 gave total luciferase, z-score -0.197.
Against SHROOM2 #3, the entry reads total luciferase, z-score -0.509.
SLC9A7 #1 gave total luciferase, z-score 0.0581.
SLC9A7 #2 gave total luciferase, z-score -0.168.
Knock-down of SLC9A7 #3 gave: total luciferase, z-score -0.154.
Silencing of COX7A2 #1 resulted in: total luciferase, z-score -0.357.
COX7A2 #2 showed total luciferase, z-score 0.393.
COX7A2 #3 showed total luciferase, z-score 0.663.
Against PAH #1 the deposit lists total luciferase, z-score 0.742.
PAH #2 gave total luciferase, z-score 0.277.
After knock-down of PAH #3, the record shows total luciferase, z-score -0.74.
Depletion of BPIFB4 #1 came out at: total luciferase, z-score 0.183.
With knock-down of BPIFB4 #2 the results were total luciferase, z-score 0.83.
Against BPIFB4 #3 the deposit lists total luciferase, z-score 0.792.
NUBP2 #1 showed total luciferase, z-score -0.405.
NUBP2 #2 scored total luciferase, z-score -0.195.
NUBP2 #3 scored total luciferase, z-score -0.332.
Depletion of ARMC10 #1 came out at: total luciferase, z-score 1.49.
After knock-down of ARMC10 #2, the screen gave total luciferase, z-score 1.28.
Depletion of ARMC10 #3 resulted in: total luciferase, z-score 0.826.
For SATL1 #1, the entry reads total luciferase, z-score 2.04.
Knock-down of SATL1 #2 gave: total luciferase, z-score -0.166.
For SATL1 #3, the entry reads total luciferase, z-score 1.48.
With knock-down of ATP8B4 #1 the results were total luciferase, z-score 1.2.
With knock-down of ATP8B4 #2, the record shows total luciferase, z-score -0.465.
After knock-down of ATP8B4 #3 the results were total luciferase, z-score 2.47.
For RNF111 #1 the deposit lists total luciferase, z-score -0.487.
Silencing of RNF111 #2 came out at: total luciferase, z-score 0.74.
RNF111 #3 scored total luciferase, z-score -0.973.
ACO1 #1 scored total luciferase, z-score 1.11.
For ACO1 #2, the values are total luciferase, z-score -0.607.
Against ACO1 #3 the deposit lists total luciferase, z-score -0.877.

Reformatted: entries from further up.
gene	reagent	total luciferase, z-score
BPIFB4	2	0.83
BPIFB4	3	0.792
